Earlier results as cited in article PMC6052858 (Die Pharmazie, 2009).

Details: intraduodenal, GFJ administered concomitantly; ref Mohri et al. 2000; cited from earlier work

## COC(=O)C1=C(C)NC(C)=C(C(=O)OC)C1c1ccccc1[N+](=O)[O-] [nifedipine]
  decrease in Tmax: 50%
